Test results taken from the supplement of paper PMC4604168 (melanoma cell lines).
The other results are listed elsewhere or left out. Single values are uncertain, as repeats are few or missing.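 Cells were imaged in 1,536-well plates, and nuclei stained with an antibody against cleaved PARP were counted against all DNA-stained nuclei to give the apoptosis fraction. Screening doses were chosen to leave most cells alive, and resting and induced cleaved-PARP levels differ strongly between cell lines.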

Test system: COLO800
Assay: cleaved PARP positive nuclei fraction relative to DMSO control; melanoma cells; higher = more apoptosis
Settings: library dose: low library concentration; 72 h

Structure (SMILES)	cleaved PARP positive nuclei fraction [%]
O=C(Nc1ccccc1)c1cc([N+](=O)[O-])ccc1Cl + O=S(=O)(c1ccccc1)N(CC(F)(F)F)c1ccc(C(O)(C(F)(F)F)C(F)(F)F)cc1 [T0901317] (first compound 2 µM, partner dose 1.4 µM)	97.2
CN(C)S(=O)(=O)c1ccc2c(c1)/C(=C/c1cc3c([nH]1)CCCC3)C(=O)N2 + NCC(=O)Nc1ccc(-n2nc(C(F)(F)F)cc2-c2ccc3c(ccc4ccccc43)c2)cc1 [OSU03012] (first compound 0.4 µM, partner dose 1 µM)	105
N#Cc1c(O)c2c(-c3ccc(-c4ccccc4O)cc3)csc2[nH]c1=O + O=S(=O)(c1ccccc1)N(CC(F)(F)F)c1ccc(C(O)(C(F)(F)F)C(F)(F)F)cc1 [T0901317] (first compound 2 µM, partner dose 1.4 µM)	232
NCC(=O)Nc1ccc(-n2nc(C(F)(F)F)cc2-c2ccc3c(ccc4ccccc43)c2)cc1 + COc1cc2c(Oc3ccc4[nH]c(C)cc4c3F)ncnc2cc1OCCCN1CCCC1 [cediranib] (first compound 1 µM, partner dose 0.4 µM)	220
CN(NC(=O)CC(=O)NN(C)C(=S)c1ccccc1)C(=S)c1ccccc1 + c1cc(-c2cnn3cc(-c4ccc(OCCN5CCCCC5)cc4)cnc23)ccn1 [Dorsomorphin] (first compound 0.006 µM, partner dose 0.4 µM)	111
COc1cc2c(Oc3ccc4[nH]c(C)cc4c3F)ncnc2cc1OCCCN1CCCC1 [cediranib] + c1cc(-c2cnn3cc(-c4ccc(OCCN5CCCCC5)cc4)cnc23)ccn1 [Dorsomorphin] (first compound 0.4 µM, partner dose 0.4 µM)	130
CN(NC(=O)CC(=O)NN(C)C(=S)c1ccccc1)C(=S)c1ccccc1 + N#Cc1c(O)c2c(-c3ccc(-c4ccccc4O)cc3)csc2[nH]c1=O [A769662] (first compound 0.006 µM, partner dose 2 µM)	145
O=C(O)c1ccc(-c2c[nH]c3ncc(-c4ccccc4)cc23)cc1C1CCCC1 + CN(NC(=O)CC(=O)NN(C)C(=S)c1ccccc1)C(=S)c1ccccc1 [STA4783] (first compound 0.16 µM, partner dose 0.006 µM)	69.1
CN(C)S(=O)(=O)c1ccc2c(c1)/C(=C/c1cc3c([nH]1)CCCC3)C(=O)N2 + CC(C)CCN1c2nc(Nc3cc(F)c(O)c(F)c3)ncc2N(C)C(=O)C1C [BID1870] (first compound 0.4 µM, partner dose 0.2 µM)	216
CN(NC(=O)CC(=O)NN(C)C(=S)c1ccccc1)C(=S)c1ccccc1 + COc1cc2c(Oc3ccc4[nH]c(C)cc4c3F)ncnc2cc1OCCCN1CCCC1 [cediranib] (first compound 0.006 µM, partner dose 0.4 µM)	99.1
COC(=O)c1sccc1S(=O)(=O)Nc1ccc(Nc2ccccc2)cc1OC + COc1ccc(-c2ccc3c(N4CCOCC4)nc(N4C[C@@H](C)O[C@@H](C)C4)nc3n2)cc1CO [KU0063794] (first compound 1 µM, partner dose 0.02 µM)	82.4
COc1ccc2c(c1)CCC1C2CCC2(C)C(NCCCCCCN3C(=O)C=CC3=O)CCC12 (stereo not drawn) + COc1cc(N2CCC(N3CCN(C)CC3)CC2)ccc1Nc1ncc(Cl)c(Nc2ccccc2S(=O)(=O)C(C)C)n1 [NVP-TAE684] (first compound 0.4 µM, partner dose 0.08 µM)	160
O=C(O)C(=O)Nc1sc2c(c1C(=O)O)CCNC2 + COc1cc(N2CCC(N3CCN(C)CC3)CC2)ccc1Nc1ncc(Cl)c(Nc2ccccc2S(=O)(=O)C(C)C)n1 [NVP-TAE684] (first compound 1.66667 µM, partner dose 0.08 µM)	120
CCCCCCCCCCCC1=C(O)C(=O)C=C(O)C1=O [Embelin] + O=c1cc(-c2cccc3c2Sc2ccccc2S3)oc(N2CCOCC2)c1 [KU55933] (first compound 1.2 µM, partner dose 1 µM)	135
COc1cc2ncnc(Nc3ccc(Oc4ccccc4)cc3)c2cc1OC + CC(C)CCN1c2nc(Nc3cc(F)c(O)c(F)c3)ncc2N(C)C(=O)C1C [BID1870] (first compound 2 µM, partner dose 0.2 µM)	156
N#Cc1c(O)c2c(-c3ccc(-c4ccccc4O)cc3)csc2[nH]c1=O + COC(=O)c1sccc1S(=O)(=O)Nc1ccc(Nc2ccccc2)cc1OC [GSK0660] (first compound 2 µM, partner dose 1 µM)	77.7
NCC(=O)Nc1ccc(-n2nc(C(F)(F)F)cc2-c2ccc3c(ccc4ccccc43)c2)cc1 + CN(NC(=O)CC(=O)NN(C)C(=S)c1ccccc1)C(=S)c1ccccc1 [STA4783] (first compound 1 µM, partner dose 0.006 µM)	104

Structure (SMILES)	cleaved PARP positive nuclei fraction [%]
NCC(=O)Nc1ccc(-n2nc(C(F)(F)F)cc2-c2ccc3c(ccc4ccccc43)c2)cc1 + COc1cc(N2CCC(N3CCN(C)CC3)CC2)ccc1Nc1ncc(Cl)c(Nc2ccccc2S(=O)(=O)C(C)C)n1 [NVP-TAE684] (first compound 1 µM, partner dose 0.08 µM)	125
CCc1ccc(CCOc2ccc(CC3SC(=O)NC3=O)cc2)nc1 (stereo not drawn) [pioglitazone] + O=C(O)C(=O)Nc1sc2c(c1C(=O)O)CCNC2 [TCS401] (first compound 2 µM, partner dose 1.66667 µM)	99.6
CCN(CC)CCCCNc1ncc2cc(-c3cc(OC)cc(OC)c3)c(NC(=O)NC(C)(C)C)nc2n1 + Oc1cc(-c2nc(-c3ccccc3)[nH]c2-c2ccncc2)ccc1Cl [L779450] (first compound 0.1 µM, partner dose 0.2 µM)	105
O=C1NC(=O)/C(=C/c2ccc(-c3ccc(F)cc3O)o2)S1 + Cc1cc([N+](=O)[O-])ccc1NS(=O)(=O)c1cc(Cl)ccc1Cl [FH535] (first compound 1 µM, partner dose 1 µM)	112
c1cc(-c2cnn3cc(-c4ccc(OCCN5CCCCC5)cc4)cnc23)ccn1 [Dorsomorphin] + CCCCCCCCCCCC1=C(O)C(=O)C=C(O)C1=O [Embelin] (first compound 0.4 µM, partner dose 1.2 µM)	105
COC(=O)c1sccc1S(=O)(=O)Nc1ccc(Nc2ccccc2)cc1OC + O=C(O)C(=O)Nc1sc2c(c1C(=O)O)CCNC2 [TCS401] (first compound 1 µM, partner dose 1.66667 µM)	73.3
O=C(Nc1ccccc1)c1cc([N+](=O)[O-])ccc1Cl + COc1ccc(-c2ccc3c(N4CCOCC4)nc(N4C[C@@H](C)O[C@@H](C)C4)nc3n2)cc1CO [KU0063794] (first compound 2 µM, partner dose 0.02 µM)	171
O=C(O)c1ccc(-c2c[nH]c3ncc(-c4ccccc4)cc23)cc1C1CCCC1 + COc1cc2c(Oc3ccc4[nH]c(C)cc4c3F)ncnc2cc1OCCCN1CCCC1 [cediranib] (first compound 0.16 µM, partner dose 0.4 µM)	99.7
CN(C)S(=O)(=O)c1ccc2c(c1)/C(=C/c1cc3c([nH]1)CCCC3)C(=O)N2 + CN(NC(=O)CC(=O)NN(C)C(=S)c1ccccc1)C(=S)c1ccccc1 [STA4783] (first compound 0.4 µM, partner dose 0.006 µM)	84.3
O=C(O)c1ccc(-c2c[nH]c3ncc(-c4ccccc4)cc23)cc1C1CCCC1 + NCC(=O)Nc1ccc(-n2nc(C(F)(F)F)cc2-c2ccc3c(ccc4ccccc43)c2)cc1 [OSU03012] (first compound 0.16 µM, partner dose 1 µM)	136
CN(C)S(=O)(=O)c1ccc2c(c1)/C(=C/c1cc3c([nH]1)CCCC3)C(=O)N2 + COc1cc2c(Oc3ccc4[nH]c(C)cc4c3F)ncnc2cc1OCCCN1CCCC1 [cediranib] (first compound 0.4 µM, partner dose 0.4 µM)	73.9
COC(=O)c1sccc1S(=O)(=O)Nc1ccc(Nc2ccccc2)cc1OC + Oc1cc(-c2nc(-c3ccccc3)[nH]c2-c2ccncc2)ccc1Cl [L779450] (first compound 1 µM, partner dose 0.2 µM)	101
O=C1NC(=O)/C(=C/c2ccc(-c3ccc(F)cc3O)o2)S1 + CCCCCCCCCCCC1=C(O)C(=O)C=C(O)C1=O [Embelin] (first compound 1 µM, partner dose 1.2 µM)	133
COc1cc(N2CCC(N3CCN(C)CC3)CC2)ccc1Nc1ncc(Cl)c(Nc2ccccc2S(=O)(=O)C(C)C)n1 + CC(C)CCN1c2nc(Nc3cc(F)c(O)c(F)c3)ncc2N(C)C(=O)C1C [BID1870] (first compound 0.08 µM, partner dose 0.2 µM)	102
CN(C)S(=O)(=O)c1ccc2c(c1)/C(=C/c1cc3c([nH]1)CCCC3)C(=O)N2 + O=C(O)c1ccc(-c2c[nH]c3ncc(-c4ccccc4)cc23)cc1C1CCCC1 [GSK650394] (first compound 0.4 µM, partner dose 0.16 µM)	145
COc1cc2ncnc(Nc3ccc(Oc4ccccc4)cc3)c2cc1OC + O=C1NC(=O)/C(=C/c2ccc(-c3ccc(F)cc3O)o2)S1 [AS252424] (first compound 2 µM, partner dose 1 µM)	70.2

Single values from above.
cleaved PARP positive nuclei fraction [%], CN(NC(=O)CC(=O)NN(C)C(=S)c1ccccc1)C(=S)c1ccccc1 + c1cc(-c2cnn3cc(-c4ccc(OCCN5CCCCC5)cc4)cnc23)ccn1 [Dorsomorphin] (first compound 0.006 µM, partner dose 0.4 µM) is entered as 111
cleaved PARP positive nuclei fraction [%], CN(C)S(=O)(=O)c1ccc2c(c1)/C(=C/c1cc3c([nH]1)CCCC3)C(=O)N2 + COc1cc2c(Oc3ccc4[nH]c(C)cc4c3F)ncnc2cc1OCCCN1CCCC1 [cediranib] (first compound 0.4 µM, partner dose 0.4 µM) is entered as 73.9
